{"source": "paper PMC7988496", "about": "“Sphingomyelin synthase-related protein generates diacylglycerol via the hydrolysis of glycerophospholipids in the absence of ceramide” (The Journal of Biological Chemistry, 2021)", "binders": {"B1": {"name": "6× His-SMSr-ΔSAMD (human sphingomyelin synthase-related protein lacking the sterile α motif domain) (domain or fragment, UniProt Q96LT4 79-413)", "chain": "HIDVLEEMGYNSDSPMGSMTPFISALQSTDWLCNGELSHDCDGPITDLNSDQYQYMNGKNKHSVRRLDPEYWKTILSCIYVFIVFGFTSFIMVIVHERVPDMQTYPPLPDIFLDSVPRIPWAFAMTEVCGMILCYIWLLVLLLHKHRSILLRRLCSLMGTVFLLRCFTMFVTSLSVPGQHLQCTGKIYGSVWEKLHRAFAIWSGFGMTLTGVHTCGDYMFSGHTVVLTMLNFFVTEYTPRSWNFLHTLSWVLNLFGIFFILAAHEHYSIDVFIAFYITTRLFLYYHTLANTRAYQQSRRARIWFPMFSFFECNVNGTVPNEYCWPFSKPAIMKRL"}}, "target": "6× His-SMSr-ΔSAMD (human sphingomyelin synthase-related protein lacking the sterile α motif domain) (human) (UniProt Q96LT4)", "test": "SEC; ENrich SEC 650 column after Ni-affinity chromatography; 20 mM Tris-HCl (pH 7.4), 200 mM NaCl, 5% glycerol, 0.5 mM dithiothreitol, 0.018% NP-40; calibrated with ferritin, catalase, bovine serum albumin, ovalbumin and carbonic anhydrase; both purified", "note": "No constants are given. Whether binding was seen depends on the method and setting. Tags and fused reporters may be left off the sequences shown."}
{"binder": "B1", "values": [{"measurement": "binding", "result": "no binding"}]}
